Experimental data taken from patent publication US20220372013A2, “PIPERIDINE-2,6-DIONE DERIVATIVES AND CROHN'S DISEASE TREATING” (Tianjin Hemay Pharmaceutical Sci-Tech Co., Ltd, priority 2016, published 2022).
At least one structure is not confirmed: it was looked up by name or label, or the drawing left a doubt.

Test system: DNBS-Induced Inflammatory Bowel Disease Models in Rats
Experiment: Biological Example 2: DNBS-induced inflammatory bowel disease models in rats
Type: in vivo, Wistar rats
Settings: fourth day of the experiment; compared with model control group; doses as in Table 7
Description: 110 male Wistar rats were fasted for 40 hours. A 5% glucose injection (10 mL/Kg) was administered subcutaneously during fasting. 48 rats with normal conditions and moderate body weight were selected from the fasting rats. The animals were randomly divided into […] according to the body weight: normal control group, model control group, sulfasalazine group (300 mg/Kg), dexamethasone group (0.1 mg/Kg), the compound in Example 26 group (30 mg/kg) and the compound in Example 27 group (30 mg/kg), with 8 rats in each group. The animals were anesthetized with isoflurane. A specially made gavage device (made by a rat gavage device having the diameter of 2 mm, which was nested on a mouse gavage device having the diameter of 1 mm) was slowly inserted into the enteric cavity at 8 cm from the anus. The model control group, the compound in Example 26 group and the compound in Example 27 group were administered with 0.5 mL of 50 mg/mL DNBS in 30% ethanol solution. The normal control group was administered with 0.5 mL of 30% ethanol solution. The animals were inverted in anesthesia for 15 minutes after the gavage device was removed. The day when the model was prepared was the first day of the experiment. After 4 hours of DNBS induction, the corresponding drug or the corresponding volume of 1% CMC-Na was administered once per day. […]

C[C@@H]1C[C@H]2[C@@H]3CCC4=CC(=O)C=C[C@]4(C)[C@@]3(F)[C@@H](O)C[C@]2(C)[C@@]1(O)C(=O)CO [Dexamethasone, dexamethasone, reference compound]
growth rate of the body weight (in words): slower
